Data published in JP2009292822A.
No constants are given. Whether binding was seen depends on the method and setting. Some binding calls cover weakened binding; strength is not graded here.

By UniProt entry, the sequences of proteins in these tests, tags left out. Residues count along the entry.
UniProt P17181, residues 28-436: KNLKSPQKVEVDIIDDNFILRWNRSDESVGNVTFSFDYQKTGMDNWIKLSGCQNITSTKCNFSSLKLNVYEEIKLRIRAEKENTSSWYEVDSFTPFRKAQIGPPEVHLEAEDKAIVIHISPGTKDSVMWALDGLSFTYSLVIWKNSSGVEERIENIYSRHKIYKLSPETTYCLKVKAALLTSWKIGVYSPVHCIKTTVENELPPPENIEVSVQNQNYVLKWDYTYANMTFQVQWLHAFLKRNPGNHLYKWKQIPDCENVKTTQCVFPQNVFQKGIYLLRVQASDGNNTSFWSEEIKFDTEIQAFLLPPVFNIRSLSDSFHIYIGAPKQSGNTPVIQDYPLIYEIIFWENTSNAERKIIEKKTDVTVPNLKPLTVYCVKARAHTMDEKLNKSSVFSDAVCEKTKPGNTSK

Target: AR1FLAG (human) (UniProt P17181)
Assay: phage ELISA on biotinylated AR1FLAG, positive clones chosen

binding | Binder
binds | AR1-41 (scFv, V domains shown) VH: QVQLKQSGAELVRPGASVRLSCKASGYTFTFYWINWIKQRPEQGLEWIGRIDPYDSETRYNQKFKDKAILTVDKYSSTAYMQLSSLTSEDSAVYYCAKGVYDGHWFFDVWGAGTSVTVSS VL: DIVMTQSHKFMSTSVGDRVSITCKASQDVSTAVAWYQQKPGQSPKLLIYSASYRYTGVPARFSGSGSGTDFTFTISSVQTEDLAVYYCQQHYRTPPTFGGGTKLELKR
binds | AR1-24 (scFv, V domains shown) VH: QVQLQQSGPELEKPGASVKISCKASGYSFSDYNMNWVKQSNGKSLEWIGNIDPYNGDTNYNQKFKGKATLTLDKSSSTAYMQLKSLTSEDSAVYFCARSRGWLLPFAYWGQGTLVTVSA VL: DILMTQSQKFMSTSVGDRVSVTCKASQNVGINVAWYQQKPGQSPKALIYSASYRYSGVPDRFTGSGSGTDFTLTISNVQSEDLAEYFCQQYNSYPLTFGGGTKLEIKR
